PubChem BioAssay AID504764 – Drosophila RNAi Screening Center – 2011

Aim: 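Genome-wide screen for regulators of Notch-driven gene expression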 (primary screen)
Cell system: Drosophila Kc167 cells
Knock-down reagent: long dsRNA against Drosophila genes
Timing: about 5 days (4 days dsRNA, then 24 h after transfection)
Challenge: transfection of constitutively active membrane-tethered Notch lacking the extracellular domain, read 24 h later
Measurement: 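Light from a Notch-responsive E(spl)m3 luciferase reporter under active Notch, with control-promoter and no-Notch reporter wells to normalise; raw counts from paired wells a and b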
Scale: induced reporter light, run 1, well a and induced reporter light, run 1, well b: higher = more light from the Notch target reporter with active Notch; control promoter light, run 1, well a and control promoter light, run 1, well b: higher = more light from the viral control promoter (cell number, transfection, viability); uninduced reporter light, run 1, well a: higher = more light from the Notch target reporter without active Notch
Active means: 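Wells with low control signal or poorly matching duplicates excluded; duplicates averaged; per source plate, z beyond ±2 for induced/control log2 ratio or beyond ±1.8 for induced/uninduced marks a hit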
Meaning of the calls: active = modifier hit (raised or lowered Notch signal); inactive = not a hit
The screen tested about 22,000 reagents; below is a random part of those with a known target gene and a result. Over the whole deposit, 403 (1.9%) were called active. 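Unnormalised raw counts per well; ratio z-scores behind the hit calls and whether each hit raises or lowers signal are not deposited.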 The record does not give: the amount of reagent.

What did the screen give for Cdc42 (Cell division cycle 42) [DRSC20228]?
induced reporter light, run 1, well a: 71685; induced reporter light, run 1, well b: 92710; control promoter light, run 1, well a: 95990; control promoter light, run 1, well b: 1.23e5; uninduced reporter light, run 1, well a: 7255; call: inactive

With Sh3beta [DRSC11001], what does the deposit list?
induced reporter light, run 1, well a: 1.12e5; induced reporter light, run 1, well b: 87950; control promoter light, run 1, well a: 68365; control promoter light, run 1, well b: 46140; uninduced reporter light, run 1, well a: 10745; call: inactive

With Rai1 (Rat1 Interacting Protein 1) [DRSC20157], how do the results read?
induced reporter light, run 1, well a: 67355; induced reporter light, run 1, well b: 62755; control promoter light, run 1, well a: 79350; control promoter light, run 1, well b: 54155; uninduced reporter light, run 1, well a: 8005; call: inactive

For Gr47a (Gustatory receptor 47a) [DRSC06221], how do the results read?
induced reporter light, run 1, well a: 1.89e5; induced reporter light, run 1, well b: 1.83e5; control promoter light, run 1, well a: 2.79e5; control promoter light, run 1, well b: 2.36e5; uninduced reporter light, run 1, well a: 17820; call: inactive

What is on record for beat-IIb (beaten path IIb) [DRSC13219]?
induced reporter light, run 1, well a: 12138; induced reporter light, run 1, well b: 11980; control promoter light, run 1, well a: 16955; control promoter light, run 1, well b: 19068; uninduced reporter light, run 1, well a: 3125; call: inactive

For beat-IIb (beaten path IIb) [DRSC14816], how do the results read?
induced reporter light, run 1, well a: 2.37e5; induced reporter light, run 1, well b: 2.54e5; control promoter light, run 1, well a: 2.50e5; control promoter light, run 1, well b: 2.57e5; uninduced reporter light, run 1, well a: 18930; call: inactive

What is on record for beat-IIb (beaten path IIb) [DRSC15546]?
induced reporter light, run 1, well a: 2.40e5; induced reporter light, run 1, well b: 2.80e5; control promoter light, run 1, well a: 2.39e5; control promoter light, run 1, well b: 2.48e5; uninduced reporter light, run 1, well a: 21600; call: inactive

Which result is listed for CCHa1 (CCHamide-1) [DRSC14821]?
induced reporter light, run 1, well a: 63970; induced reporter light, run 1, well b: 76745; control promoter light, run 1, well a: 25860; control promoter light, run 1, well b: 28250; uninduced reporter light, run 1, well a: 11960; call: inactive

What did the screen give for CG32681 [DRSC17646]?
induced reporter light, run 1, well a: 70115; induced reporter light, run 1, well b: 67620; control promoter light, run 1, well a: 77615; control promoter light, run 1, well b: 67630; uninduced reporter light, run 1, well a: 5065; call: inactive

How did the screen score uno (univalents only) [DRSC07244]?
induced reporter light, run 1, well a: 1.92e5; induced reporter light, run 1, well b: 1.73e5; control promoter light, run 1, well a: 2.59e5; control promoter light, run 1, well b: 1.90e5; uninduced reporter light, run 1, well a: 17610; call: inactive

With CG43367 [DRSC08299], what was measured?
induced reporter light, run 1, well a: 94710; induced reporter light, run 1, well b: 1.16e5; control promoter light, run 1, well a: 2.18e5; control promoter light, run 1, well b: 1.45e5; uninduced reporter light, run 1, well a: 8280; call: inactive

With CG43367 [DRSC08301], what does the deposit list?
induced reporter light, run 1, well a: 1.71e5; induced reporter light, run 1, well b: 1.26e5; control promoter light, run 1, well a: 2.20e5; control promoter light, run 1, well b: 1.66e5; uninduced reporter light, run 1, well a: 11325; call: inactive

For CG43367 [DRSC08309], what does the deposit list?
induced reporter light, run 1, well a: 1.81e5; induced reporter light, run 1, well b: 1.23e5; control promoter light, run 1, well a: 2.21e5; control promoter light, run 1, well b: 1.72e5; uninduced reporter light, run 1, well a: 10320; call: inactive

How did the screen score eya (eyes absent) [DRSC03510]?
induced reporter light, run 1, well a: 2.34e5; induced reporter light, run 1, well b: 2.06e5; control promoter light, run 1, well a: 1.65e5; control promoter light, run 1, well b: 1.81e5; uninduced reporter light, run 1, well a: 17660; call: inactive

With Act88F (Actin 88F) [DRSC14105], what does the deposit list?
induced reporter light, run 1, well a: 2.39e5; induced reporter light, run 1, well b: 2.77e5; control promoter light, run 1, well a: 2.74e5; control promoter light, run 1, well b: 3.18e5; uninduced reporter light, run 1, well a: 20478; call: inactive

With CG30281 [DRSC04528], what does the deposit list?
induced reporter light, run 1, well a: 2.03e5; induced reporter light, run 1, well b: 1.82e5; control promoter light, run 1, well a: 1.46e5; control promoter light, run 1, well b: 1.52e5; uninduced reporter light, run 1, well a: 16232; call: inactive

For Arr2 (Arrestin 2) [DRSC09670], what does the deposit list?
induced reporter light, run 1, well a: 1.20e5; induced reporter light, run 1, well b: 1.17e5; control promoter light, run 1, well a: 1.46e5; control promoter light, run 1, well b: 1.09e5; uninduced reporter light, run 1, well a: 6790; call: inactive

A few values from the entries so far.
Under “control promoter light, run 1, well a”, beat-IIb (beaten path IIb) [DRSC13219] shows 16955
For “uninduced reporter light, run 1, well a”, beat-IIb (beaten path IIb) [DRSC14816] reads 18930
For “induced reporter light, run 1, well a”, beat-IIb (beaten path IIb) [DRSC15546] is entered as 2.40e5
Result of eya (eyes absent) [DRSC03510] under “induced reporter light, run 1, well b”: 2.06e5

Continued.
With CG15708 [DRSC06579], how do the results read?
induced reporter light, run 1, well a: 30590; induced reporter light, run 1, well b: 30680; control promoter light, run 1, well a: 45815; control promoter light, run 1, well b: 48285; uninduced reporter light, run 1, well a: 3410; call: inactive

What is on record for Trmt112 (tRNA methyltransferase subunit 11-2) [DRSC11685]?
induced reporter light, run 1, well a: 1.55e5; induced reporter light, run 1, well b: 1.36e5; control promoter light, run 1, well a: 1.40e5; control promoter light, run 1, well b: 1.21e5; uninduced reporter light, run 1, well a: 8975; call: inactive

Which result is listed for Cisd2 (CDGSH iron sulfur domain 2) [DRSC14904]?
induced reporter light, run 1, well a: 1.42e5; induced reporter light, run 1, well b: 1.59e5; control promoter light, run 1, well a: 2.02e5; control promoter light, run 1, well b: 1.97e5; uninduced reporter light, run 1, well a: 13482; call: inactive

Which result is listed for CG42673 [DRSC08989]?
induced reporter light, run 1, well a: 1.64e5; induced reporter light, run 1, well b: 1.51e5; control promoter light, run 1, well a: 1.49e5; control promoter light, run 1, well b: 1.51e5; uninduced reporter light, run 1, well a: 12265; call: inactive

Which result is listed for CG42673 [DRSC08991]?
induced reporter light, run 1, well a: 3990; induced reporter light, run 1, well b: 3345; control promoter light, run 1, well a: 3770; control promoter light, run 1, well b: 3530; uninduced reporter light, run 1, well a: 3645; call: inactive

What is on record for CG42673 [DRSC10177]?
induced reporter light, run 1, well a: 1.23e5; induced reporter light, run 1, well b: 1.16e5; control promoter light, run 1, well a: 2.21e5; control promoter light, run 1, well b: 1.97e5; uninduced reporter light, run 1, well a: 6270; call: inactive

With CG42673 [DRSC10264], what does the deposit list?
induced reporter light, run 1, well a: 1.42e5; induced reporter light, run 1, well b: 1.49e5; control promoter light, run 1, well a: 2.08e5; control promoter light, run 1, well b: 1.59e5; uninduced reporter light, run 1, well a: 8900; call: inactive

With CG42673 [DRSC10353], what was measured?
induced reporter light, run 1, well a: 2.69e5; induced reporter light, run 1, well b: 1.87e5; control promoter light, run 1, well a: 2.93e5; control promoter light, run 1, well b: 2.45e5; uninduced reporter light, run 1, well a: 11705; call: inactive

What did the screen give for CG42673 [DRSC10354]?
induced reporter light, run 1, well a: 1.75e5; induced reporter light, run 1, well b: 1.43e5; control promoter light, run 1, well a: 2.02e5; control promoter light, run 1, well b: 2.12e5; uninduced reporter light, run 1, well a: 8745; call: inactive
